# Results from one PubChem assay

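293T-iDUX4 cells carrying a ZSCAN4-driven Gaussia luciferase and a tet-on Italica luciferase control; the gap between the two luminescence signals is read after 24 h. The test concentration is not given here. Percent difference between the Gaussia and Italica channels; more negative values mean more selective suppression of the DUX4 reporter, and higher values mean less activity.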

Values are in %. The controls that fix the scale are not given here. Common to all entries: measured here: selective DUX4 reporter inhibition. This is a side read-out of the assay, for part of the compounds, not drawn at random.

SMILES | Gaussia minus Italica difference (%)
O=C(C[C@H]1CC[C@@H]2[C@H](COC[C@@H](O)CN2Cc2ccc(F)cc2)O1)NCc1ccccc1Cl | -5.999
COc1ccccc1-c1ccc2c(c1)[C@H]1[C@H](CCN1S(=O)(=O)c1ccccc1OC)[C@@H](CO)N2 | 37.39
COc1ccc(-c2ccc3c(c2)[C@H]2[C@H](CCN2S(=O)(=O)c2ccccc2F)[C@H](CO)N3C)cc1 | 20.24
O=C(Nc1ccc(F)cc1)N1CC(=O)N2[C@H](CO)[C@H](c3ccc(-c4cccc(F)c4)cc3)[C@@H]2C1 | 6.699
O=C(Cc1ccncc1)N1CCCCN2[C@H](CO)[C@@H](c3ccc(C#Cc4ccccc4F)cc3)[C@@H]2C1 | -5.946
O=C(C[C@H]1C[C@H]2c3cc(NC(=O)c4ccc5c(c4)OCO5)ccc3O[C@H]2[C@H](CO)O1)NCc1ccc(Cl)cc1 | -9.297
C/C=C/c1ccccc1[C@@H]1[C@@H](C#N)N(S(=O)(=O)c2cccc(F)c2)[C@H]1CO | 1.86
COc1cccc(C(=O)Nc2ccc3c(c2)OC[C@@H](C)N(CCc2ccccc2)C[C@H](C)[C@@H](OC)CN(C)C3=O)c1 | -9.852
N#Cc1ccc(-c2ccc3c(c2)[C@@H]2[C@@H](CCN2S(=O)(=O)c2cccc(F)c2)[C@H](CO)N3)cc1 | -0.541
COc1ccccc1-c1ccccc1[C@@H]1[C@@H](CO)N(C(=O)C2CCC2)[C@H]1C#N | -10.18
O=C(C1CC1)N1CC[C@@H]2[C@H](CO)Nc3ccc(C#Cc4ccccc4F)cc3[C@@H]21 | -20.03
O=C(Cc1ccccn1)N[C@H]1CC[C@@H](CCNS(=O)(=O)c2cccc(F)c2)O[C@H]1CO | 2.382
COc1ccc2c3c([nH]c2c1)[C@@H](CO)N(S(C)(=O)=O)CC31CCN(CC2CCCC2)CC1 | -2.256
O=C1CNC[C@H]2[C@H](c3ccc(C#CC4CCCCC4)cc3)[C@H](CO)N12 | -2.108
COCC(=O)N1CCC2(CC1)CN(Cc1cc(F)ccc1F)[C@@H](CO)c1[nH]c3cc(OC)ccc3c12 | -9.204
O=C(C[C@@H]1CC[C@H]2[C@@H](COC[C@@H](O)CN2Cc2ccc(Cl)cc2)O1)NCc1cccc(F)c1 | -4.104
COc1cc(CN2CC3(CN(C(=O)c4ccc5c(c4)OCO5)C3)c3c(n(C)c4cc(OC)ccc34)[C@H]2CO)cc(OC)c1 | -11.81
O=C(C[C@@H]1CC[C@H]2[C@@H](COC[C@@H](O)CN2Cc2ccccc2F)O1)NCc1ccccc1F | -6.403
CCC(=O)N1[C@H](CO)[C@@H](c2ccccc2)C12CN(Cc1ccccc1F)C2 | -9.468
O=C(Nc1ccc(F)cc1)N1CC(=O)N2[C@H](CO)[C@H](c3ccc(C#Cc4cccnc4)cc3)[C@H]2C1 | -22.5
COc1ccc2c3c([nH]c2c1)[C@@H](CO)N(Cc1ccccc1Cl)CC31CN(C(C)=O)C1 | 0.7797
C[C@H]1CN([C@@H](C)CO)C(=O)c2ccccc2-c2ccccc2CO[C@H]1CN(C)Cc1ccc(Oc2ccccc2)cc1 | -11.25
O=C(c1cnccn1)N1CC(=O)N2[C@H](CO)[C@@H](c3ccc(C#CCC4CCCC4)cc3)[C@@H]2C1 | -9.733
O=C(Nc1ccccc1F)N1CCCCN2[C@H](CO)[C@@H](c3ccc(C#Cc4cccnc4)cc3)[C@@H]2C1 | 2.682
Cc1ccccc1S(=O)(=O)N1CC[C@@H]2[C@@H](CO)Nc3ccc(-c4ccc(F)cc4)cc3[C@@H]21 | -24.58
COc1ccc(C#Cc2ccc([C@@H]3[C@@H](CO)N4CCCCN(C(=O)Cc5cccnc5)C[C@@H]34)cc2)cc1 | -4.436
O=C(C[C@@H]1C[C@H]2c3cc(NC(=O)c4ccc5c(c4)OCO5)ccc3O[C@H]2[C@H](CO)O1)NCc1ccc(Oc2ccccc2)cc1 | -9.103
COc1ccccc1CNC(=O)C[C@H]1C[C@H]2c3cc(NC(=O)c4ccc5c(c4)OCO5)ccc3O[C@H]2[C@@H](CO)O1 | -11.29
CO[C@H]1CN(C)C(=O)c2ccc(NC(=O)c3cccc(F)c3)cc2OC[C@H](C)N(CC2CC2)C[C@@H]1C | -11.57
O=C(C[C@@H]1CC[C@@H]2[C@H](COC[C@@H](O)CN2Cc2nccs2)O1)NCc1ccc(Oc2ccccc2)cc1 | -8.166
COc1ccc(-c2ccc([C@H]3[C@H]4CN(C(=O)c5ccc(F)cc5)CCCCN4[C@H]3CO)cc2)cc1 | 0.497
C[C@H]1CN([C@@H](C)CO)C(=O)CCCn2nncc2CO[C@H]1CN(C)Cc1ccc(C(F)(F)F)cc1 | -13.2
COc1ccc2c3c([nH]c2c1)[C@@H](CO)N(Cc1cc(F)ccc1F)CC31CCN(C(C)=O)CC1 | -23.05
CC(C)C#Cc1ccc([C@@H]2[C@H](CO)N3C(=O)CN(C(=O)C4CCCCC4)C[C@@H]23)cc1 | -10.12
Cc1ccccc1-c1ccc([C@H]2[C@@H](CO)N3C(=O)CN(C(=O)Nc4cccc(F)c4)C[C@@H]23)cc1 | -2.41
C[C@H](CO)N1C[C@H](C)[C@H](CN(C)Cc2ccc(Cl)c(Cl)c2)OCc2cnnn2CCCC1=O | -5.389
COc1ccc(-c2ccc3c(c2)[C@H]2[C@H](CCN2C(=O)NC2CCCCC2)[C@H](CO)N3C)cc1 | 18.85
COc1ccc2c3c([nH]c2c1)[C@@H](CO)N(C(=O)Nc1ccccc1F)CC31CN(C(=O)c2ccccc2F)C1 | -10.1
C[C@H](CO)N1C[C@H](C)[C@H](CN(C)Cc2ccc(Cl)c(Cl)c2)OCc2ccccc2-c2c(n(C)c3ccccc23)C1=O | 1.906
C[C@H](CO)N1C[C@H](C)[C@@H](CN(C)C(=O)CCC(F)(F)F)OCc2ccccc2-c2c(n(C)c3ccccc23)C1=O | -0.3455
C/C=C/c1ccc([C@@H]2[C@@H](CO)N3CCCCN(CCC(F)(F)F)C[C@@H]23)cc1 | -14.69
O=C(Nc1cccc(Cl)c1)N[C@H]1CC[C@@H](CCn2cc(Cc3ccccc3)nn2)O[C@H]1CO | -7.231
Cc1ccccc1S(=O)(=O)N1C[C@@H](O)COC[C@H]2O[C@H](CC(=O)N3CCC(Cc4ccccc4)CC3)CC[C@@H]21 | -5.131
O=C(C[C@H]1C[C@@H]2c3cc(NC(=O)Nc4ccc(C(F)(F)F)cc4)ccc3O[C@@H]2[C@@H](CO)O1)NCc1ccccn1 | -4.919
C[C@H]1CN([C@@H](C)CO)C(=O)c2ccccc2-c2ccccc2CO[C@H]1CN(C)Cc1ccc(Cl)c(Cl)c1 | -0.01199
COc1ccc2c3c([nH]c2c1)[C@@H](CO)N(CC1CC1)CC31CN(S(=O)(=O)c2cccc(F)c2)C1 | -10.02
COc1ccc(C#Cc2ccc([C@@H]3[C@@H](CO)N4CCCCN(S(=O)(=O)c5cn(C)cn5)C[C@@H]34)cc2)cc1 | -13.35
c1ccc(CN2C[C@@H]3N[C@H](C2)C3c2ccc(-c3ccncc3)cc2)cc1 (some centres undefined) | -15.35
N#Cc1cccc(-c2ccc3c(c2)[C@@H]2[C@@H](CCN2C(=O)C2CCCCC2)[C@@H](CO)N3)c1 | 13.69
COc1cccc(S(=O)(=O)N(C)C[C@H]2OCc3ccccc3-c3c(n(C)c4ccccc34)C(=O)N([C@H](C)CO)C[C@H]2C)c1 | -8.895
O=C(C[C@@H]1CC[C@@H]2[C@H](COC[C@H](O)CN2Cc2nccs2)O1)NCc1ccc(-c2ccccc2)cc1 | 3.097
Cc1ccc(-c2ccc(C3[C@@H]4CN(C(=O)Nc5ccc(C(F)(F)F)cc5)C[C@H]3N4)cc2)cc1 (some centres undefined) | -1.873
COc1ccc(C#Cc2ccc3c(c2)[C@H]2[C@H](CCN2S(=O)(=O)c2ccccc2C)[C@@H](CO)N3C)cc1 | -9.74
O=C(C[C@@H]1C[C@H]2c3cc(NC(=O)Nc4ccc(C(F)(F)F)cc4)ccc3O[C@H]2[C@H](CO)O1)NCc1ccccn1 | -14.71
COc1ccc2c3c(n(C)c2c1)[C@H](CO)N(Cc1ccc(F)cc1)CC31CCN(CC2CC2)CC1 | -1.25
OC[C@@H]1[C@@H](c2ccc(-c3ccccc3F)cc2)[C@@H]2CN(Cc3cccnc3)CCCCN12 | -4.408
C[C@H]1CN([C@@H](C)CO)C(=O)c2c(c3ccccc3n2C)-c2ccccc2CO[C@@H]1CN(C)CC1CCCCC1 | -11.97
CCCN1[C@@H]2c3ccc(/C=C/c4ccccc4)c(=O)n3C[C@H]1[C@H](CO)[C@H]2C(=O)NCC1CC1 | -8.514
CO[C@H]1CN(C)C(=O)c2cc(NC(=O)c3ccc4c(c3)OCO4)ccc2OC[C@H](C)N(CCC(F)(F)F)C[C@H]1C | -18.37
C[C@@H]1CN([C@@H](C)CO)C(=O)CCCn2nncc2CO[C@H]1CN(C)Cc1ccc(Oc2ccccc2)cc1 | -4.83
N#C[C@H]1[C@H](c2ccccc2C2=CCCCC2)[C@@H](CO)N1C(=O)c1cccc(F)c1 | -2.319
CCCC#Cc1ccc([C@H]2[C@H]3CN(C(=O)c4ccc5c(c4)OCO5)CCCCN3[C@H]2CO)cc1 | -12.2
COc1cccc(-c2ccccc2[C@@H]2[C@@H](CO)N(C(=O)Cc3ccccc3)[C@H]2C#N)c1 | 5.138
CO[C@H]1CN(C)C(=O)c2ccc(NC(=O)C3CCC3)cc2OC[C@@H](C)N(Cc2ccncc2)C[C@H]1C | -15.02
C[C@H](CO)N1C[C@H](C)[C@H](CN(C)Cc2cccnc2)OCc2ccccc2-c2c(n(C)c3ccccc23)C1=O | -5.129

Repeated from the top, 7 entries:

{"smiles": "O=C(C[C@H]1CC[C@@H]2[C@H](COC[C@@H](O)CN2Cc2ccc(F)cc2)O1)NCc1ccccc1Cl", "Gaussia minus Italica difference (%)": "-5.999"}
{"smiles": "COc1ccccc1-c1ccc2c(c1)[C@H]1[C@H](CCN1S(=O)(=O)c1ccccc1OC)[C@@H](CO)N2", "Gaussia minus Italica difference (%)": "37.39"}
{"smiles": "COc1ccc(-c2ccc3c(c2)[C@H]2[C@H](CCN2S(=O)(=O)c2ccccc2F)[C@H](CO)N3C)cc1", "Gaussia minus Italica difference (%)": "20.24"}
{"smiles": "O=C(Nc1ccc(F)cc1)N1CC(=O)N2[C@H](CO)[C@H](c3ccc(-c4cccc(F)c4)cc3)[C@@H]2C1", "Gaussia minus Italica difference (%)": "6.699"}
{"smiles": "O=C(Cc1ccncc1)N1CCCCN2[C@H](CO)[C@@H](c3ccc(C#Cc4ccccc4F)cc3)[C@@H]2C1", "Gaussia minus Italica difference (%)": "-5.946"}
{"smiles": "O=C(C[C@H]1C[C@H]2c3cc(NC(=O)c4ccc5c(c4)OCO5)ccc3O[C@H]2[C@H](CO)O1)NCc1ccc(Cl)cc1", "Gaussia minus Italica difference (%)": "-9.297"}
{"smiles": "C/C=C/c1ccccc1[C@@H]1[C@@H](C#N)N(S(=O)(=O)c2cccc(F)c2)[C@H]1CO", "Gaussia minus Italica difference (%)": "1.86"}

From PubChem BioAssay record AID1224904 (Broad Institute, 2016).